Results are given in words; binding and its absence hold for the method and conditions named. Binding seen in cells or lysates may run through a third protein. Some binding calls cover weakened binding; strength is not graded here.
Key:
GST-PIN1 [1] = biological target: GST-PIN1 (UniProt Q13526); assay: condition: only cells treated with LPS (100 ng/ml, 1 h) instead of IL-33; pull-down; as a1, but extract of DC2.4 cells treated with LPS (100 ng/ml, 1 h); only the target purified
GST-PIN1 [2] = biological target: GST-PIN1 (UniProt Q13526); assay: pull-down; GST-PIN1 on Glutathione-Sepharose 4B mixed with 1 mg total protein extract of DC2.4 cells treated with IL-33 (100 ng/ml, 1 h), 3 h at 4 °C; 150 mM NaCl, 20 mM Tris-HCl pH 8, 1 mM MgCl2, 0.1% NP-40; eluted with reduced glutathione, blot or IP for IRAK-M; only the target purified

Chains of the proteins cited; added tags and fusions are not shown.
UniProt Q13526: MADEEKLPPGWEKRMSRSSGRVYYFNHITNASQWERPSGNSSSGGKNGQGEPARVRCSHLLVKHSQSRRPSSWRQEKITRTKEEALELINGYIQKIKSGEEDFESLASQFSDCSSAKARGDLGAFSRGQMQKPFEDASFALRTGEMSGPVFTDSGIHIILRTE

B1: interleukin receptor associated kinase M (IRAK-M), endogenous in DC2.4 cells (protein, UniProt Q8K4B2 1-609)
chain: MAGRCGARGALSPQLLLFDLPPALLGELCGILDSCDGPLGWRGLAERLSNSWLDVRHIEKYVNQGKSGTRELLWSWAQKNKTIGDLLEVLQDMGHQRAIHLIINYGVSWTPSVQTHHELPFPSFPPEVKHACRENDPGPLEPANVTVDNVLVPEHNEKGTLQKTPISFQSILEGTKHFHKDFLIGEGEIFEVYRVDIRNQAYAVKLFKQEKKMQLKKHWKRFLSELEVLLLFRHPHILELAAYFTETEKLCLVYPYMSNGTLFDRLQCTNGTTPLSWHVRISVLIGIAKAIQYLHNTQPCAVICGNVSSANILLDDQLQPKLTDFAAAHFRPNLEQQSSTINMTGGGRKHLWYMPEEYIRQGRLSVKTDVYSFGIVIMEVLTGCKVVLDDPKHVQLRDLLMELMEKRGLDSCLSFLDRKIPPCPRNFSAKLFSLAGRCVATKAKLRPTMDEVLSSLESTQPSLYFAEDPPTSLKSFRCPSPLFLDNVPSIPVEDDENQNNHSVPPKEVLGTDRVTQKTPFECSQSEVTFLGLDRNRGNRGSEADCNVPSSSHEECWSPELVAPSQDLSPTVISLGSSWEVPGHSYGSKPMEKRCSSGLFCSEHEQSKKQ
binding (GST-PIN1 [1]): no binding
binding (GST-PIN1 [2]): binds
